Reference: article PMC3942490
Results are given in words; binding and its absence hold for the method and conditions named. Binding seen in cells or lysates may run through a third protein. Binding can be weak; no strength is given. Tags and fused reporters may be left off the sequences shown. Each block holds one binder with its values, some of them ahead of it.

How the values were obtained:
[1] = molecular target: DBP1 fused to maltose binding protein (MaBP) (Arabidopsis thaliana); test: co-IP; fusion proteins transiently coexpressed in N. benthamiana leaves; cleared extracts in TBS with 5 mM DTT, protease and phosphatase inhibitors, incubated 2 h at 4°C with conjugated antibodies (anti-MaBP or anti-HA); washes TBS, TBS 0.5% Triton X-100, TBS 0.3 M NaCl 1% NP-40; Western blot of the immunoprecipitate
[2] = molecular target: Arabidopsis thaliana DBP1 fused to a YFP fragment (BiFC) (Arabidopsis thaliana); test: split reporter; BiFC: YFP^N and YFP^C fusions transiently coexpressed in N. benthamiana leaves by agroinfiltration (with P19); confocal microscopy three days after infiltration; both reciprocal combinations
[3] = molecular target: Arabidopsis thaliana MAP kinase MPK11 fused to a YFP fragment (BiFC) (Arabidopsis thaliana); test: as above

binding [1]: binds
B1: MPK11 fused to YFP (protein, UniProt Q9LMM5 1-369)
chain: MSIEKPFFGDDSNRGVSINGGRYVQYNVYGNLFEVSKKYVPPLRPIGRGASGIVCAAWNSETGEEVAIKKIGNAFGNIIDAKRTLREIKLLKHMDHDNVIAIIDIIRPPQPDNFNDVHIVYELMDTDLHHIIRSNQPLTDDHSRFFLYQLLRGLKYVHSANVLHRDLKPSNLLLNANCDLKIGDFGLARTKSETDFMTEYVVTRWYRAPELLLNCSEYTAAIDIWSVGCILGEIMTREPLFPGRDYVQQLRLITELIGSPDDSSLGFLRSDNARRYVRQLPQYPRQNFAARFPNMSVNAVDLLQKMLVFDPNRRITVDEALCHPYLAPLHEYNEEPVCVRPFHFDFEQPSLTEENIKELIYRESVKFNP

binding [2]: binds | binding [3]: binds
B2: Arabidopsis thaliana 14-3-3λ (GRF6) fused to a YFP fragment (BiFC) (protein, UniProt P48349 1-248)
chain: MAATLGRDQYVYMAKLAEQAERYEEMVQFMEQLVTGATPAEELTVEERNLLSVAYKNVIGSLRAAWRIVSSIEQKEESRKNDEHVSLVKDYRSKVESELSSVCSGILKLLDSHLIPSAGASESKVFYLKMKGDYHRYMAEFKSGDERKTAAEDTMLAYKAAQDIAAADMAPTHPIRLGLALNFSVFYYEILNSSDKACNMAKQAFEEAIAELDTLGEESYKDSTLIMQLLRDNLTLWTSDMQEQMDEA

B3: GRF6 tagged with the hemagglutinin (HA) epitope (protein, UniProt P48349 1-248)
chain: B2 chain
binding [1]: binds
